# Source: paper PMC12509916
# Amino acid sequences for entries named in this document (tags omitted). A change or cut given only in a name is not applied to a line headed by its entry. Residues count along the entry.
# UniProt Q03181: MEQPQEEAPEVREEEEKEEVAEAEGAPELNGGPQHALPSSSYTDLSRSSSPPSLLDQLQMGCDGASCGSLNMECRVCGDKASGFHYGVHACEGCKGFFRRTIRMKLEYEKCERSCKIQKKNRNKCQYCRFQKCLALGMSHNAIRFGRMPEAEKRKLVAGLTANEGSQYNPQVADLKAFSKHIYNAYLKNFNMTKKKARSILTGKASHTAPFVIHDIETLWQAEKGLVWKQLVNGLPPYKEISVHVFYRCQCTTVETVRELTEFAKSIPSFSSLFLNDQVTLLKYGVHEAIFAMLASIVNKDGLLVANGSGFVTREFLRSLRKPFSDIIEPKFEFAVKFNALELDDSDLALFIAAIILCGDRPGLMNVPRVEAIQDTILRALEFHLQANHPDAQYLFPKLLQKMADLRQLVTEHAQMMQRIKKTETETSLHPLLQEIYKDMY
# UniProt P41279: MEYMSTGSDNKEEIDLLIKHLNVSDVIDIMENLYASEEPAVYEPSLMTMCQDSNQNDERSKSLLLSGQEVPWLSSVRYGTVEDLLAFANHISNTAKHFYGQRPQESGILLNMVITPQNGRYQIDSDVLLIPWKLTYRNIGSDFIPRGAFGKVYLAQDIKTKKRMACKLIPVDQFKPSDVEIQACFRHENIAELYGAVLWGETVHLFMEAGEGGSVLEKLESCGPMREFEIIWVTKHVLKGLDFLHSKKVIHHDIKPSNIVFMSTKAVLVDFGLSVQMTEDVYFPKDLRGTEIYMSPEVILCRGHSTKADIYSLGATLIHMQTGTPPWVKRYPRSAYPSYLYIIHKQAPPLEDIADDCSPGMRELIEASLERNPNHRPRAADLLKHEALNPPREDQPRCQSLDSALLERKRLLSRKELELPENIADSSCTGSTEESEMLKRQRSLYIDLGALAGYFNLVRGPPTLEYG
# GST-TPL2[30-397]: residues 30-397 of P41279
# These are yes or no findings as the source states them, for the method shown. For some assays here: Binding seen in cells or lysates may run through a third protein. Some binding calls cover weakened binding; strength is not graded here.
# Tests used:
# [1] = target: HA-tagged PPARδ (peroxisome proliferator-activated receptor delta) (UniProt Q03181); assay: co-IP; SCM1/TPL2 cells transiently transfected with HA-PPARδ plasmid; immunoprecipitation with anti-HA antibody from 800 μg total cell lysate, protein A-Sepharose overnight at 4 °C, immunoblot; cells treated with hypoxia
# GST-TPL2[30-397] [2] = target: GST-TPL2[30-397] (UniProt P41279); assay: pull-down; in vitro GST pulldown; GST-TPL2[30-397] or GST alone as bait, PPARδ as prey; control reactions lacking PPARδ gave no signal
# GST-TPL2[30-397] [3] = target: GST-TPL2[30-397] (UniProt P41279); assay: differential scanning calorimetry (DSC); thermal transition peak of TPL2/PPARD; rightward shift read as binding or complex formation; both purified
# [4] = target: FLAG-tagged TPL2 (Tumor Progression Locus 2) (UniProt P41279); assay: co-IP; SCM1/TPL2-2 cells; immunoprecipitation with anti-FLAG antibody, endogenous PPARδ detected by immunoblot; 800 μg total cell lysate, protein A-Sepharose overnight at 4 °C
# [5] = target: endogenous PPARδ (human (endogenous in SCM1)) (UniProt Q03181); assay: co-IP; SCM1 cells, both proteins endogenous; immunoprecipitation with anti-PPARδ antibody, TPL2 detected by immunoblot; 800 μg total cell lysate, protein A-Sepharose overnight at 4 °C
substance,measurement,setting,value
FLAG-tagged TPL2 (Tumor Progression Locus 2) (from UniProt P41279 1-467) (enzyme),binding,[1],binds
PPARδ (in vitro GST pulldown and DSC) (from UniProt Q03181 1-441) (receptor),binding,GST-TPL2[30-397] [2],binds
same,binding,GST-TPL2[30-397] [3],binds
endogenous PPARδ (from UniProt Q03181 1-441) (receptor),binding,[4],binds
endogenous TPL2 (from UniProt P41279 1-467) (enzyme),binding,[5],binds
